The values that follow come from PubChem BioAssay AID2685 (National Center for Advancing Translational Sciences (NCATS), 2010).

This is one part of the list. The main result of the screen is listed elsewhere. These columns were measured beside it and carry no call. Most of these compounds were active or inconclusive in the main read-out, so they are no random draw. The note in brackets gives the kind of curve behind each potency; many fits are weak.

A short description of the assay: qHTS Assay for Lipid Storage Modulators in Drosophila S3 Cells.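 As to cell number change: cells counted by Cell Tracker Red CMTPX staining in the red channel.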 To be noted: BODIPY lipid droplet fluorescence, 18-24 h; for cell number change: measured here: cell count max response, cells fed with added oleic acid. Put shortly: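 Drosophila S3 cells loaded with oleic acid (400 uM, as added) and compounds at several concentrations; lipid droplets imaged by 488-nm laser-scanning cytometry, 500–530 nm intensity and object ratio to cell channel. Percent activity normalized to 20 uM Triacsin C.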
Background: In qHTS, concentration-response curves come from the screen itself.

Where [1] appears, read: measured here: lipid fluorescence (Fed channel) AC50, cells fed with added oleic acid.
The mark [2] stands for this setting: measured here: cell number channel AC50, cells fed with added oleic acid.

As for `O=C(CSc1nc2cc(Cl)ccc2o1)NCCc1ccccc1`, the cell number change is -26.1%. Also, the AC50 (usually the midpoint of the concentration-response curve, whichever way the signal moves) under setting [1] is 29100 nM [falling, single point]. For the compound `CCCCCC(=O)Nc1cccc(S(=O)(=O)NC2=NCCC2)c1`, the cell number change came out at 26.9%. The AC50 under setting [1] is 3660 nM [rising, single point]. As to `CC(=O)Nc1cccc(C(=O)OC(C(=O)c2ccc(C)cc2)c2ccccc2)c1` (configuration not stated), the cell number change is 0.281%. Besides, the AC50 under setting [2] was 6510 nM [falling, single point]. As for `CCN1CCN(c2nc(-c3ccccc3Cl)nc3ccccc23)CC1`, the cell number change worked out at 23.6%. On to `Oc1ccccc1Cc1c(O)ccc2ccccc12`, for which the cell number change is -56.8%. For the same compound, the AC50 under setting [2] is 29100 nM [falling, single point]. Under setting [1], the AC50 is 7310 nM [falling, partial curve].

In the case of `CCOC(=O)N1CCN(c2cc(=O)n(C3CCCCC3)c(=O)[nH]2)CC1`, the cell number change was 16.7%. For the same compound, the AC50 under setting [1] was 18400 nM [rising, single point]. For the compound `Cc1noc(C)c1COC(=O)C1CCN(C(=O)c2ccc(Cl)cc2)CC1`, the cell number change is -16.8%. Further, under setting [1], the AC50 was 731 nM [falling, full curve].

On to `O=C(NCC(c1ccco1)N1CCCC1)c1ccccc1F` (configuration not stated), for which the cell number change stood at 1.7%. The concentration at half-maximal activity (AC50) under setting [2] is 130 nM [falling, full curve, poor fit]. Consider `O=C(Nc1ccc(F)cc1F)N1CCN(c2ncccn2)CC1`, for which the half-maximal activity concentration (AC50) under setting [1] was 5800 nM [falling, single point].

For `NC(=O)CSc1oc(-c2ccc(F)cc2)nc1S(=O)(=O)c1ccccc1`, the AC50 is 2060 nM [rising, partial curve] under setting [2] and 920 nM [rising, partial curve] under setting [1]. Regarding `COc1ccccc1OCCC(=O)OCC(=O)Nc1ccc(S(=O)(=O)N2CCOCC2)cc1`, the cell number change worked out at 16.6%. Besides, the half-maximal activity concentration (AC50) under setting [2] is 92 nM [rising, full curve, poor fit]. Besides, the AC50 under setting [1] is 130 nM [rising, full curve, poor fit]. `CCOc1c(Br)cc(C2CC(=O)Nc3cc(OC)c(OC)cc32)cc1OC` (configuration not stated): the cell number change is -39%. Also, under setting [2], the AC50 was 14600 nM [falling, partial curve, poor fit]. The AC50 under setting [1] was 580 nM [rising, single point].

Turning to `COc1ccccc1-n1c(SCC(=O)Nc2cc(C)on2)nc2c(c1=O)SCC2`, under setting [2], the AC50 was 1460 nM [rising, partial curve]. Consider `CNc1nc(Cl)c(SC)c(N2CCOCC2)n1`, for which the cell number change was 30.4%. The concentration at half-maximal activity (AC50) under setting [2] is 291 nM [rising, partial curve, poor fit]. Regarding `Cc1cc(=O)n(CCC(=O)O)c2ccccc12`, the cell number change worked out at 5.02%. The AC50 under setting [1] was 29100 nM [rising, single point]. In the case of `CC(CCc1ccc(O)cc1)NCc1ccc(Br)cc1` (configuration not stated), the cell number change is -23.2%. Take `COC(=O)/C=C1\SC(=NC(=O)c2ccc(OC)cc2)NC1=O`: the cell number change was determined as 3.04%. `CS(=O)(=O)N(CCc1ccccc1)CC(=O)Nc1ccc(OCc2ccccc2)cc1`: the cell number change stood at 20.1%. Moreover, the AC50 under setting [1] is 146 nM [falling, full curve, poor fit].

In the case of `Cc1cc([N+](=O)[O-])ccc1NC(=O)c1csc(C)c1C`, the cell number change was -2.48%. The AC50 under setting [1] is 29100 nM [rising, single point]. Regarding `CCCCN(CC)C(=O)c1ccc(Cl)cc1`, the cell number change came out at 23.5%. Further, the AC50 under setting [2] was 184 nM [rising, full curve, poor fit].

Turning to `CCCn1nnnc1NCc1ccccc1OCc1cccs1`, the cell number change turned out to be 7.89%. For the same compound, the AC50 under setting [1] is 29100 nM [rising, single point]. For the compound `Cc1cccn2cc(CSc3ccccc3N)nc12`, the cell number change is 30.5%. The AC50 under setting [2] is 3660 nM [rising, partial curve, poor fit]. For the compound `Cc1nn(Cc2ccccc2)c2c1C(c1cccc(Cl)c1)C(C#N)=C(N)O2` (configuration not stated), the cell number change is -11.2%. In addition, under setting [2], the concentration at half-maximal activity (AC50) is 5.8 nM [falling, full curve, poor fit]. In addition, under setting [1], the concentration at half-maximal activity (AC50) was 103 nM [falling, full curve, poor fit].

For `CSc1n[nH]c(=S)n1N`, the cell number change came out at 4.37%. The AC50 under setting [2] is 92 nM [falling, partial curve, poor fit]. Turning to `CCCCNC(=O)COC(=O)c1ccc(NC(C)=O)cc1`, the cell number change was found to be 23.7%. Turning to `NC(=S)Nc1c(Cl)cccc1Cl`, the cell number change is -11.5%. Further, the AC50 under setting [1] is 366 nM [falling, partial curve, poor fit].

`CC(=O)c1cccc(-n2nnnc2SCC(=O)NNC(=O)C(C)C)c1`: the cell number change stood at 13.5%. In addition, under setting [1], the AC50 is 20600 nM [rising, single point].

With `Cc1ccc2onc(CC(=O)O)c2c1`, the AC50 was 5800 nM [rising, single point] under setting [2] and 731 nM [falling, full curve] under setting [1]. `O=C1c2ccccc2C(=O)N1Cc1nc2ccccc2c(=O)n1Cc1ccco1`: the cell number change is -16.1%. Besides, the AC50 under setting [1] was 164 nM [falling, full curve, poor fit]. As for `COc1cccc(-c2nn(-c3ccccc3)cc2C(=O)n2nnc3ccccc32)c1`, the cell number change is 7.7%. Besides, under setting [1], the AC50 is 6510 nM [rising, single point]. Consider `Cc1ccc(N2CC(O)Cn3c2nc2c3c(=O)n(C)c(=O)n2C)cc1` (configuration not stated), for which the cell number change was determined as 7.21%. With `CCOc1ccc2[nH]c(=O)c(CN(CCO)C(=O)CC)cc2c1`, the cell number change is -6.43%. For the same compound, under setting [1], the AC50 was 4.11 nM [falling, full curve, poor fit]. For `COc1ccc(C(=O)CSc2cc(C)nc3nc(C)nn23)cc1OC`, the AC50 runs as follows: under setting [2], 92 nM [rising, full curve, poor fit]; under setting [1], 130 nM [rising, full curve, poor fit]. As to `N#Cc1ccsc1NC(=O)c1cccc(-n2cnnn2)c1`, the cell number change is 13.9%. As for `COc1ccccc1Cn1c(=O)[nH]c2cccnc21`, the cell number change amounted to 2.13%. Moreover, the concentration at half-maximal activity (AC50) under setting [1] was 116 nM [rising, full curve, poor fit].

Regarding `CN(NC(=O)c1ccccc1F)c1nc(C(F)(F)F)nc2ccccc12`, the cell number change is 6.1%. The concentration at half-maximal activity (AC50) under setting [1] is 4110 nM [rising, single point]. For `CCOc1ccccc1C(=O)Nc1c[nH]c(=O)[nH]c1=O`, the cell number change was -7.14%. Turning to `CN(C(=O)CSc1nnc(C2CC2)n1C1CC1)C1(C#N)CCCCC1`, the cell number change worked out at 19.9%. In addition, the AC50 under setting [2] was 2910 nM [falling, single point]. The AC50 under setting [1] is 2910 nM [falling, single point]. On to `COc1cccc(C(=O)Nc2ccc3[nH]c(=O)[nH]c3c2)c1OC`, for which the cell number change is 20.6%. Turning to `O=C(CC12CC3CC(CC(C3)C1)C2)Nc1nncs1`, the cell number change is -0.99%. Besides, the half-maximal activity concentration (AC50) under setting [1] was 6510 nM [falling, single point]. For `O=C(NCc1ccccc1)N[C@@H](Cc1ccccc1)C(=O)O`, the cell number change is -65.9%. Moreover, the AC50 under setting [2] is 20600 nM [falling, single point].
